Assay results taken from paper PMC10085937 (Clinical Pharmacokinetics, 2023).

Assay type: in vivo, human
Details: atorvastatin 10 mg with multiple-dose cilofexor

CC(C)c1c(C(=O)Nc2ccccc2)c(-c2ccccc2)c(-c2ccc(F)cc2)n1CC[C@@H](O)C[C@@H](O)CC(=O)O [atorvastatin]
Atorvastatin AUC compared with atorvastatin alone: 139%
